Reference: the supplement of paper PMC10849652
The list shows a part of the results.

Protein sequences, listed by entry. Tags and fused reporters are not part of them. Lines headed by an entry give the natural chain unless they say otherwise; changes in a name come on top.
UniProt Q00013: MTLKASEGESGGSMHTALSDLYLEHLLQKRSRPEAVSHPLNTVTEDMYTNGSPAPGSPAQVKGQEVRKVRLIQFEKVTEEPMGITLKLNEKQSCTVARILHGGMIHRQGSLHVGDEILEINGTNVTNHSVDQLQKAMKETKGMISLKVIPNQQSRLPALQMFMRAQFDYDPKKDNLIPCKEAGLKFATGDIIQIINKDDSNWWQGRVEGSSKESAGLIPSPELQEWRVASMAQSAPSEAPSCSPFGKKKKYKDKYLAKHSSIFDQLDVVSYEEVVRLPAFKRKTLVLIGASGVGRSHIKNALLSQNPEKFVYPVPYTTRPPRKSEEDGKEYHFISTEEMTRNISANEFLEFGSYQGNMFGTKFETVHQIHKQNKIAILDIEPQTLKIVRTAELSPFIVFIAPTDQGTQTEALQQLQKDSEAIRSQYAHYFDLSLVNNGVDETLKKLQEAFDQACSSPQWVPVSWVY
UniProt Q5XKP0: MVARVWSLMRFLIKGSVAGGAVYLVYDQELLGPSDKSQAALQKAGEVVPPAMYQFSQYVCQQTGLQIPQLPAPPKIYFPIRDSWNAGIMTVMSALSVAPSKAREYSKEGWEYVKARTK
UniProt P14174: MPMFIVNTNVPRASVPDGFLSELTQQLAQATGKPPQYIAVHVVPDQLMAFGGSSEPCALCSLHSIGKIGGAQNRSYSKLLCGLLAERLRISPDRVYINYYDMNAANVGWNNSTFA
UniProt Q14149: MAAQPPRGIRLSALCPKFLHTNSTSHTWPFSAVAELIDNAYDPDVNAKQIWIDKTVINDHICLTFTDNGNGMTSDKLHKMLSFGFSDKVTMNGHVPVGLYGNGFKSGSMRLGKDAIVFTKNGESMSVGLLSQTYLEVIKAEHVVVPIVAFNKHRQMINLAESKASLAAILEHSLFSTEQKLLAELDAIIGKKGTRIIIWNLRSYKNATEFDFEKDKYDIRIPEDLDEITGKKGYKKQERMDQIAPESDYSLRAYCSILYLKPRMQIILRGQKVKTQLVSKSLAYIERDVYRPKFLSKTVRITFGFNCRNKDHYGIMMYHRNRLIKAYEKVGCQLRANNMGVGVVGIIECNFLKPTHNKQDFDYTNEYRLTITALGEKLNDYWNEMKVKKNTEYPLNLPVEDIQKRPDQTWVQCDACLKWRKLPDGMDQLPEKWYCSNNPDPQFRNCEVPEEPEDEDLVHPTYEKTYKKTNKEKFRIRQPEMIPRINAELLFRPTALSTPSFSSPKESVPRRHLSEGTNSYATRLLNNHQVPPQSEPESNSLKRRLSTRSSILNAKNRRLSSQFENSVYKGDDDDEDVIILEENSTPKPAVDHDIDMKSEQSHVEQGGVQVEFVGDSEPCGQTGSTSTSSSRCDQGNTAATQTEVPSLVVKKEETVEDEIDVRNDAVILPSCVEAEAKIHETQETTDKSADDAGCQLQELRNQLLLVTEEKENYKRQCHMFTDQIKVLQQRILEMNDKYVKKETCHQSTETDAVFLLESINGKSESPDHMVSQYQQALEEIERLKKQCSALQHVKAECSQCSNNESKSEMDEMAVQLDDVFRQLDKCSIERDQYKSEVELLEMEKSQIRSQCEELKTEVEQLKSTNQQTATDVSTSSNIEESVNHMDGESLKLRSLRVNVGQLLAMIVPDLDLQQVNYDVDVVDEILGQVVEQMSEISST
UniProt Q7Z3U7: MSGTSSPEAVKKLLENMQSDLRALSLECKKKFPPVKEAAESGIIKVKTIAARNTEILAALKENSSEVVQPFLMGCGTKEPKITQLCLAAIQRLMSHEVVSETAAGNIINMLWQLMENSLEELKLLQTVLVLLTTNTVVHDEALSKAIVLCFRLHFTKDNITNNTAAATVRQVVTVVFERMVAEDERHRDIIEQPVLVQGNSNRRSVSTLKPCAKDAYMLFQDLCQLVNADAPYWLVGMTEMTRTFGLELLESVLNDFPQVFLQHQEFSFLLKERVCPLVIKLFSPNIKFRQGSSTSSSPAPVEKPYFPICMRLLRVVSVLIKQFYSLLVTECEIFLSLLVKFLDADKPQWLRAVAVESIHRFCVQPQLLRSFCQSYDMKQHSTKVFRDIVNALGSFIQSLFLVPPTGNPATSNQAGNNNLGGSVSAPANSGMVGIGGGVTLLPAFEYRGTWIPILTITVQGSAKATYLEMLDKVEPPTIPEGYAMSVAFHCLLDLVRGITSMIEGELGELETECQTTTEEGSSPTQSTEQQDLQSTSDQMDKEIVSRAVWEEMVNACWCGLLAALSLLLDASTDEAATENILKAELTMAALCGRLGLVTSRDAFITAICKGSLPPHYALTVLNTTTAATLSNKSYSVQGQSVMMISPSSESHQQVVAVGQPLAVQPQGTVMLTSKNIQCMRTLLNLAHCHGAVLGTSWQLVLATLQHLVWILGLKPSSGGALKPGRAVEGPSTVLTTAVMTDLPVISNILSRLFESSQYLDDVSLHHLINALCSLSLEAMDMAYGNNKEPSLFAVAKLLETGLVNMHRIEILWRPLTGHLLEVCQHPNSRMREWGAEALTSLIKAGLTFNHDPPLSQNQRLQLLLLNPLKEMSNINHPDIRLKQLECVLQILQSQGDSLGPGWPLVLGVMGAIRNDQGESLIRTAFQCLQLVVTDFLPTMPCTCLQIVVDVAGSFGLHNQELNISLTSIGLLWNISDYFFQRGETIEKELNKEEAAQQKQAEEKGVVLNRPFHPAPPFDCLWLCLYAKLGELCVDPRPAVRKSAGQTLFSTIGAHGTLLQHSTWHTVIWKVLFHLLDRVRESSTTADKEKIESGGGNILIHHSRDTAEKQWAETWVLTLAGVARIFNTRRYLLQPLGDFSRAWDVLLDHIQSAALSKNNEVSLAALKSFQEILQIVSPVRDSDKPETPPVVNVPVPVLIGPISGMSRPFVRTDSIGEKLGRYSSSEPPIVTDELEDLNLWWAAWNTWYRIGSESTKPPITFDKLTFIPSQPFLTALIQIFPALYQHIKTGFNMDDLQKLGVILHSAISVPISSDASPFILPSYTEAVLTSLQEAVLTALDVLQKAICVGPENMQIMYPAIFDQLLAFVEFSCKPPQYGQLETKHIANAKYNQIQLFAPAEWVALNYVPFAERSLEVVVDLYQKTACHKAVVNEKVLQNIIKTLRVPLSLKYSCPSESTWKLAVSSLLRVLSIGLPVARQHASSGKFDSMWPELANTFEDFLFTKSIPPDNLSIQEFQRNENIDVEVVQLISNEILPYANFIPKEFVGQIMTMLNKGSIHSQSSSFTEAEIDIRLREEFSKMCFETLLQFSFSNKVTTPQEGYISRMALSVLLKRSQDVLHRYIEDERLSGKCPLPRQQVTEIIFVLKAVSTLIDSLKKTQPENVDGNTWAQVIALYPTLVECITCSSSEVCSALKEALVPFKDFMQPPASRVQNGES
UniProt Q9UH92: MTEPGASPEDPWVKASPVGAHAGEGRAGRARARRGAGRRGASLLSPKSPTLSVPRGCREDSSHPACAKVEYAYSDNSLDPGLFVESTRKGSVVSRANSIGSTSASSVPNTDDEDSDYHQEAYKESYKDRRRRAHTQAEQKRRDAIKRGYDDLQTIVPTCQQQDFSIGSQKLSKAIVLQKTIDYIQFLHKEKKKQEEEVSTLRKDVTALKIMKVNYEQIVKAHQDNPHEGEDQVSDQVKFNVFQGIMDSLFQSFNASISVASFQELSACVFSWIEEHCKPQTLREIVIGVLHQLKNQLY
UniProt Q8WV92, whole entry, looked up: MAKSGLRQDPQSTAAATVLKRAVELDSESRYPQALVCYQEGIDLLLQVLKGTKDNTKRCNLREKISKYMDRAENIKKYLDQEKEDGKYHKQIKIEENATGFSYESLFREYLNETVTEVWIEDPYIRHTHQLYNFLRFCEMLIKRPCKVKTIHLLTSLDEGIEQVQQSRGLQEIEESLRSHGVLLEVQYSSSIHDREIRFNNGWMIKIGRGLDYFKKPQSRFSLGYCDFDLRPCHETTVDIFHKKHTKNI
UniProt Q9BPX6: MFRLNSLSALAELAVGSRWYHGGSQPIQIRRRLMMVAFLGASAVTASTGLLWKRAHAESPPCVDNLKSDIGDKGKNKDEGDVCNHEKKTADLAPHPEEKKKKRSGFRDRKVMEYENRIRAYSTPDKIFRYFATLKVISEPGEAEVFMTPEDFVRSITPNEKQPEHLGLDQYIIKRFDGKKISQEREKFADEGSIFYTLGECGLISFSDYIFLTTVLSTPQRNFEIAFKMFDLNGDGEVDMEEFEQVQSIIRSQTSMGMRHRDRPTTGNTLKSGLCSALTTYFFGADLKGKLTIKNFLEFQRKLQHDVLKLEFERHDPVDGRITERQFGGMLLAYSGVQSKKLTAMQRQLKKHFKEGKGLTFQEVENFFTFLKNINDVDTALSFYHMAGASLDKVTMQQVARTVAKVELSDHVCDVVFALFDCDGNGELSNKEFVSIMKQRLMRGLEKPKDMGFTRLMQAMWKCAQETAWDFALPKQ
UniProt P39210: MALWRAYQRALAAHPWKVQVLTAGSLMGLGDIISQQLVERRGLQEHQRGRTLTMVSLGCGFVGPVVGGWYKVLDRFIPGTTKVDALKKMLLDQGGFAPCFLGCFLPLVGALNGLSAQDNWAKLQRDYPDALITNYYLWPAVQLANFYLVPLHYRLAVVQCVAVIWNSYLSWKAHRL
UniProt Q9NYP9: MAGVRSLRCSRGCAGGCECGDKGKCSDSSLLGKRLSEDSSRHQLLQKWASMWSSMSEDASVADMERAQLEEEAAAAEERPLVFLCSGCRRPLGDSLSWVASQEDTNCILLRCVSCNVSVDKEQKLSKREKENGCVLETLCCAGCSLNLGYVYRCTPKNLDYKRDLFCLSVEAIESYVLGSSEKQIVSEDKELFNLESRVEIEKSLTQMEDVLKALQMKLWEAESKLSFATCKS
UniProt P51948: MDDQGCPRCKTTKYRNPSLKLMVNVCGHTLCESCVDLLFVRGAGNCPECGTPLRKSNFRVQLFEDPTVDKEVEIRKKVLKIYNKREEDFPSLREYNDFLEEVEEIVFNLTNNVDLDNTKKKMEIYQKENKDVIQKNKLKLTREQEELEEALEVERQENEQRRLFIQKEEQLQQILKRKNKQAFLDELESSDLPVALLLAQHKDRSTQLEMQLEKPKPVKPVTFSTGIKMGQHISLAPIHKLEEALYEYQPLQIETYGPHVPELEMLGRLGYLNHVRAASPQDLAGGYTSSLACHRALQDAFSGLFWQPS
UniProt Q9BUB5: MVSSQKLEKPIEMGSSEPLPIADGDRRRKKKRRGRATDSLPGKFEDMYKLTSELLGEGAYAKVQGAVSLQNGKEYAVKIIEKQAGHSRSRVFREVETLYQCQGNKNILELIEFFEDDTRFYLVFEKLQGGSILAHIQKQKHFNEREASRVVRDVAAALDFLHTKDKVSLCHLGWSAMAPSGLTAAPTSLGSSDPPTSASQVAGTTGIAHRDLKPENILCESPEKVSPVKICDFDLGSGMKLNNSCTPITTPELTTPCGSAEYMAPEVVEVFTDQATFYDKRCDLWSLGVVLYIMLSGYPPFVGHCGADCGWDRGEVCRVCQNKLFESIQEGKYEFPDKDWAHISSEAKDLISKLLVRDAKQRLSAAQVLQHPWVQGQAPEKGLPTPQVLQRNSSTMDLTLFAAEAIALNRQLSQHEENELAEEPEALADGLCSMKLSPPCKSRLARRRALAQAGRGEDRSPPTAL
UniProt Q96T76: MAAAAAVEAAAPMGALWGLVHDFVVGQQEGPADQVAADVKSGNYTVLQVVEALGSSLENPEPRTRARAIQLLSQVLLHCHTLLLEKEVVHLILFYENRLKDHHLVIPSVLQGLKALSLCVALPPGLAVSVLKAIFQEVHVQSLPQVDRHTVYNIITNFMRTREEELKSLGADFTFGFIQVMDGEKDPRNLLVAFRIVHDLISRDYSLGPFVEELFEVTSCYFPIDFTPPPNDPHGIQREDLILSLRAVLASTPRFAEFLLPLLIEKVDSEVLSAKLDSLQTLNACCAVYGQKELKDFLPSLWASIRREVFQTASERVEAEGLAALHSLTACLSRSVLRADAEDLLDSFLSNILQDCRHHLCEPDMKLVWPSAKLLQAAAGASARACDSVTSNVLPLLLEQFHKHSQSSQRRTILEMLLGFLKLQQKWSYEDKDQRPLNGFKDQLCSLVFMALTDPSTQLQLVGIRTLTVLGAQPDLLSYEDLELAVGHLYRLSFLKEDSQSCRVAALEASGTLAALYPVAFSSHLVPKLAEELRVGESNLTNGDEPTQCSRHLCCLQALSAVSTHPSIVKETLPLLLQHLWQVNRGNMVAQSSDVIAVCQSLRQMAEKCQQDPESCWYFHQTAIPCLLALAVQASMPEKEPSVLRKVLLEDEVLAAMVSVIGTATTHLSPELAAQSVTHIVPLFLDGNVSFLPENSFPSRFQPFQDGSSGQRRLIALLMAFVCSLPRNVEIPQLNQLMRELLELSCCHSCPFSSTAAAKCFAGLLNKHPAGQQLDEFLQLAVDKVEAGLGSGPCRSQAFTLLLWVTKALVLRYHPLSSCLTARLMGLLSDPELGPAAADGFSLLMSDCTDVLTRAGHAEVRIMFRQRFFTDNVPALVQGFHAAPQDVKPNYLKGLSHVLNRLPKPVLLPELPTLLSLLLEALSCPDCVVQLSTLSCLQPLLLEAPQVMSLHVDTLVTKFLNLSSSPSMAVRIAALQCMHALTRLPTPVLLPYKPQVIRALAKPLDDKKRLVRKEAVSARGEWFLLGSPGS

Each target was assayed with C#Cc1cccc(Nc2ncnc3cc(OCCOC)c(OCCOC)cc23)c1 [erlotinib] (assay: log2 fold change, soluble protein after heating vs DMSO (PISA); higher = thermal stabilisation; K562 cells, 10 uM, 30 min; active = over 0.2 and 3.5 SD of the protein, either way, in both replicates (recomputed)).
In short: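 K562 cells at 2×10^6 cells/mL were given 10 μM compound for 30 min. Aliquots then went through 3 min of heating across 48°C-58°C, were pooled, and were extracted in PBS with 0.5% NP-40 at 4°C, and the supernatant after 21,000xg for 90 min was quantified by TMTpro 16plex LC-MS/MS with channel sums equalised. Thermal stability relative to control samples, from duplicates, is given as log2 fold change.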

Row | Target | log2 fold change
1 | MPP1 (UniProt Q00013) | inactive: 0.083
2 | MICU2 (UniProt Q8IYU8) | inactive: -0.013
3 | MICOS13 (UniProt Q5XKP0) | inactive: 0.008
4 | MIER1 isoform 12 (UniProt Q8N108) | active: 0.399
5 | MPHOSPH10 (UniProt O00566) | inactive: -0.079
6 | MOCS3 (UniProt O95396) | inactive: 0.07
7 | MINK1 (UniProt Q8N4C8) | inactive: -0.05
8 | MIF (UniProt P14174) | inactive: 0.058
9 | MPDU1 (UniProt O75352) | inactive: -0.008
10 | MORC3 (UniProt Q14149) | inactive: 0.022
11 | MKRN2 (UniProt Q9H000) | inactive: -0.038
12 | MRPL46 (UniProt Q9H2W6) | inactive: -0.025
13 | MIEN1 (UniProt Q9BRT3) | inactive: 0.023
14 | MRPL47 (UniProt Q9HD33) | inactive: -0.189
15 | MON2 isoform 5 (UniProt Q7Z3U7) | inactive: 0.034
16 | MRPL34 (UniProt Q9BQ48) | inactive: -0.029
17 | MRPL55 isoform 2 (UniProt Q7Z7F7) | inactive: -0.024
18 | MLX (UniProt Q9UH92) | inactive: 0.038
19 | MRPL39 (UniProt Q9NYK5) | inactive: -0.079

Row | Target | log2 fold change
20 | MRPL50 (UniProt Q8N5N7) | inactive: -0.107
21 | MITD1 (UniProt Q8WV92) | inactive: 0.011
22 | MIEF1 (UniProt Q9NQG6) | inactive: 0.009
23 | MICU1 isoform 3 (UniProt Q9BPX6) | inactive: -0.02
24 | MON1B (UniProt Q7L1V2) | inactive: 0.016
25 | MPV17 (UniProt P39210) | inactive: 0.071
26 | MIS12 (UniProt Q9H081) | inactive: 0.103
27 | MND1 (UniProt Q9BWT6) | inactive: -0.068
28 | MIS18A (UniProt Q9NYP9) | inactive: 0.031
29 | MLST8 (UniProt Q9BVC4) | inactive: -0.021
30 | MNAT1 (UniProt P51948) | inactive: 0.01
31 | MORF4L2 (UniProt Q15014) | inactive: -0.114
32 | MIEF1 (UniProt L0R8F8) | inactive: 0.025
33 | MKNK1 (UniProt Q9BUB5) | active: 0.305
34 | MOV10 (UniProt Q9HCE1) | inactive: -0.103
35 | MRPL57 (UniProt Q9BQC6) | inactive: -0.114
36 | MMS19 isoform 8 (UniProt Q96T76) | inactive: -0.01
37 | MPRIP isoform 2 (UniProt Q6WCQ1) | inactive: 0.027
38 | MICAL3 (UniProt Q7RTP6) | inactive: 0.067

An excerpt of these results, comma-delimited:
Row,Target,log2 fold change
33,MKNK1 (UniProt Q9BUB5),active: 0.305
34,MOV10 (UniProt Q9HCE1),inactive: -0.103
